Reference: PubChem BioAssay AID493014 (National Center for Advancing Translational Sciences (NCATS), 2011)
The other results are listed elsewhere or left out. These are further read-outs of the screen, such as a control signal, another cell line or another target. No call is given for them. The list favours compounds with an active or inconclusive main result. The note in brackets gives the kind of curve behind each potency; many fits are weak.

test: qHTS Assay to Find Inhibitors of Chronic Active B-Cell Receptor Signaling; conditions: ABC-DLBCL IkBa-CBG/CBR reporter, luminescence ratio (green luciferase fused to IkBa over red control in TMD8 lymphoma cells), 4 h; measured here: CBR red luminescence, cell number
Outline: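 Cell line TMD8 (human ABC DLBCL), stably expressing tet-inducible CBG68-IkBa fusion and CBR; IMDM/0.5% FBS; cpd up to 46 uM; dox induction, 4 h, 37C/5% CO2; dual luminescence; green/red ratio; MG132 control.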

Q: Which AC50 does the source give for `Cn1cc(/C=C2\SC(=S)N(NC(=O)c3ccccc3)C2=O)c2ccccc21` here?
A: The AC50 was 8.2 µM [falling, partial curve].

Q: For `Cc1ccc(NC(=O)C2CCC(CNC(=O)[C@@H]3Cc4ccccc4CN3)CC2)cc1` (stereo partly specified), which AC50 is on record?
A: The AC50 was 4.47 µM [falling, partial curve].

Q: With `COc1ccc(C2C(C(=O)c3cccs3)=C(O)C(=O)N2c2cccc(C)n2)cc1` (stereo unspecified) as the compound, how does the AC50 read?
A: Its AC50 is 35.5 µM [falling, single point].

Q: For `CCCCCN1CN(S(=O)(=O)c2cccs2)c2nc3ccccc3nc21`, which AC50 is on record?
A: Its AC50 is 12.6 µM [falling, partial curve, poor fit].

Q: For `O=C(NC(NC(=S)Nc1ccc(Cl)cc1)C(Cl)(Cl)Cl)c1ccco1` (stereo unspecified), which AC50 is on record?
A: The AC50 was 29.1 µM [falling, single point].

Q: With `O=C(NCc1cccc(Cl)c1)c1cccc(OC2CCN(C(=O)C3CC3)CC2)c1` as the compound, how does the AC50 read?
A: The AC50 was 8.91 µM [falling, partial curve].

Q: With `Cc1nc2c(-c3ccc(F)cc3)c(C)nn2c(C)c1CCC(=O)N1CCN(c2ccc(F)cc2)CC1` as the compound, how does the AC50 read?
A: Its AC50 is 32.6 µM [rising, single point].

Q: Which AC50 does the source give for `COC(=O)c1cc(=O)n(Cc2ccc(F)cc2)c(=Nc2ccccc2)s1` here?
A: Its AC50 is 2 µM [falling, partial curve, poor fit].

Q: With `C=CCc1ccc(OCCCCOc2ccc(C(=O)O)cc2)c(OC)c1` as the compound, how does the AC50 read?
A: Its AC50 is 0.316 µM [falling, full curve].

Q: With `CC(=O)c1cc(-c2ccccc2)n(CCC(=O)NCCc2ccccc2)c1C` as the compound, how does the AC50 read?
A: Its AC50 is 14.1 µM [rising, partial curve, poor fit].

Q: Which AC50 does the source give for `CCOc1ccccc1Nc1nnc(SCC(=O)NC(=O)c2cccn2C)s1` here?
A: The AC50 was 16.4 µM [falling, partial curve].

Q: Which AC50 does the source give for `NC1=NC[C@H](CC2CCCCC2)N1CCc1cc(C(F)(F)F)cc(C(F)(F)F)c1` here?
A: The AC50 was 25.1 µM [falling, single point].

Q: For `C/C(=N\NC(=O)c1ccccn1)C12CC3CC(CC(C3)C1)C2`, which AC50 is on record?
A: The AC50 was 35.5 µM [falling, single point].

Q: Which AC50 does the source give for `C=CCn1c(SCC(=O)Nc2cccc3ccccc23)nc(O)c(CC)c1=O` here?
A: The AC50 was 8.2 µM [falling, partial curve, poor fit].

Q: Which AC50 does the source give for `CC(=O)Nc1ccc(C(=O)c2ccccc2)cc1` here?
A: Its AC50 is 14.1 µM [falling, single point].

Q: Which AC50 does the source give for `CCOC(=O)c1cc(-c2ccccc2)n(CCCC(=O)Nc2ccc(C)cc2Cl)c1C` here?
A: The AC50 was 25.1 µM [rising, partial curve].

Q: With `COc1ccc2cc1Oc1ccc(cc1)C[C@H]1c3c(cc(OC)c4c3Oc3c(ccc5c3[C@H](C2)N(C)CC5)O4)CCN1C` as the compound, how does the AC50 read?
A: The AC50 was 6.51 µM [falling, single point].

Q: Which AC50 does the source give for `COc1cccc(/C=C2/SC(=S)N(CC(=O)NC3C=CS(=O)(=O)C3)C2=O)c1` (stereo unspecified) here?
A: Its AC50 is 15.8 µM [falling, single point].

Q: For `C[C@H](NC(=O)c1nc[nH]c1C(=O)NCC(=O)OCc1ccccc1)c1ccccc1`, which AC50 is on record?
A: The AC50 was 1.12 µM [rising, full curve, poor fit].

Q: For `CCSc1oc(-c2ccco2)nc1S(=O)(=O)c1ccc(F)cc1`, which AC50 is on record?
A: The AC50 was 8.2 µM [falling, partial curve, poor fit].

Q: Which AC50 does the source give for `COc1ccc(N2CCN(C(=O)C3Cc4ccccc4CN3C(=O)c3ccco3)CC2)cc1` (stereo unspecified) here?
A: The AC50 was 6.51 µM [rising, single point].

Q: For `Cc1ccc(CNc2ncnc3c2cnn3-c2ccc(C)cc2C)cc1`, which AC50 is on record?
A: Its AC50 is 7.08 µM [falling, partial curve].

Q: Which AC50 does the source give for `CN(Cc1ccccc1)C(=O)CC(c1ccccc1)c1cc(Cl)ccc1O` (stereo unspecified) here?
A: Its AC50 is 17.8 µM [falling, single point].

Q: For `Cc1ccc(NC(=S)N(C)C(c2ccccc2)c2ccccc2)cc1C`, which AC50 is on record?
A: The AC50 was 10 µM [falling, partial curve, poor fit].

Q: Which AC50 does the source give for `Brc1ccccc1-n1nnc(-c2cccnc2)n1` here?
A: The AC50 was 35.5 µM [rising, partial curve, poor fit].

Q: With `CN(C(=O)c1ccc(COc2ccccc2Br)o1)c1ccccc1` as the compound, how does the AC50 read?
A: Its AC50 is 35.5 µM [falling, single point].

Q: For `Cc1ccc(C2CC(=O)NC(SCc3ccccc3)=C2C#N)o1` (stereo unspecified), which AC50 is on record?
A: The AC50 was 17.8 µM [falling, single point].

Q: For `COC(=O)c1ccc(C)c(NC(=O)C2COc3ccccc3O2)c1` (stereo unspecified), which AC50 is on record?
A: The AC50 was 0.00461 µM [rising, full curve, poor fit].

Q: With `COc1ccc(CC(=O)Nc2ccc(C(=O)Nc3nccs3)cc2)cc1OC` as the compound, how does the AC50 read?
A: Its AC50 is 22.4 µM [falling, partial curve, poor fit].

Q: With `COc1ccccc1-c1sc2cc3c(cc2c1-c1ccc2c(c1)OCO2)OCO3` as the compound, how does the AC50 read?
A: Its AC50 is 0.58 µM [rising, full curve, poor fit].

Q: With `COC(=O)CC(NS(=O)(=O)c1cccs1)c1cccc2ccccc12` (stereo unspecified) as the compound, how does the AC50 read?
A: Its AC50 is 6.51 µM [rising, partial curve, poor fit].

Q: Which AC50 does the source give for `CSc1sccc1/C=N/O` here?
A: Its AC50 is 0.316 µM [rising, full curve, poor fit].

Q: With `CCc1cc2c(=O)n(CC(C)C)cnc2s1` as the compound, how does the AC50 read?
A: Its AC50 is 14.6 µM [rising, partial curve, poor fit].

Q: For `CCc1ccc(Oc2coc3cc(OCC(=O)Nc4cc(C)ccc4C)ccc3c2=O)cc1`, which AC50 is on record?
A: The AC50 was 3.66 µM [rising, full curve, poor fit].

Q: With `O=C(NCc1ccccc1Cl)C1CCCN(c2ncnc3c2nc2n3CCCCC2)C1` (stereo unspecified) as the compound, how does the AC50 read?
A: Its AC50 is 4.47 µM [rising, partial curve, poor fit].

Q: With `CCOc1cc(CNCCO)cc(Br)c1OCc1cccs1` as the compound, how does the AC50 read?
A: The AC50 was 20 µM [falling, single point].

Q: For `N#Cc1c(Sc2ncc(C(F)(F)F)cc2Cl)nsc1C/C=N\OCc1c(F)cccc1Cl`, which AC50 is on record?
A: The AC50 was 6.51 µM [falling, single point].

Q: Which AC50 does the source give for `CCCCC(CC)COC1(c2ccccc2)OC(=O)c2ccccc21` (stereo unspecified) here?
A: Its AC50 is 3.16 µM [rising, single point].

Q: With `NNC(=S)Nc1ccccc1Cl` as the compound, how does the AC50 read?
A: Its AC50 is 10 µM [falling, partial curve].

Q: With `c1ccc(Cn2nnc(-c3ccccc3)n2)cc1` as the compound, how does the AC50 read?
A: The AC50 was 2.91 µM [rising, full curve, poor fit].

Q: Which AC50 does the source give for `O=C(CSc1nccn1-c1cccc(Cl)c1)NO` here?
A: Its AC50 is 5.62 µM [falling, partial curve, poor fit].
